Reference: the supplement of paper PMC12067093, “Discovery and optimisation of a covalent ligand for TRIM25 and its application to targeted protein ubiquitination” (Chemical Science, 2025)
The list shows a part of the results.

Chains of the proteins cited; added tags and fusions are not shown. Lines headed by an entry give the natural chain unless they say otherwise; changes in a name come on top.
UniProt Q12986: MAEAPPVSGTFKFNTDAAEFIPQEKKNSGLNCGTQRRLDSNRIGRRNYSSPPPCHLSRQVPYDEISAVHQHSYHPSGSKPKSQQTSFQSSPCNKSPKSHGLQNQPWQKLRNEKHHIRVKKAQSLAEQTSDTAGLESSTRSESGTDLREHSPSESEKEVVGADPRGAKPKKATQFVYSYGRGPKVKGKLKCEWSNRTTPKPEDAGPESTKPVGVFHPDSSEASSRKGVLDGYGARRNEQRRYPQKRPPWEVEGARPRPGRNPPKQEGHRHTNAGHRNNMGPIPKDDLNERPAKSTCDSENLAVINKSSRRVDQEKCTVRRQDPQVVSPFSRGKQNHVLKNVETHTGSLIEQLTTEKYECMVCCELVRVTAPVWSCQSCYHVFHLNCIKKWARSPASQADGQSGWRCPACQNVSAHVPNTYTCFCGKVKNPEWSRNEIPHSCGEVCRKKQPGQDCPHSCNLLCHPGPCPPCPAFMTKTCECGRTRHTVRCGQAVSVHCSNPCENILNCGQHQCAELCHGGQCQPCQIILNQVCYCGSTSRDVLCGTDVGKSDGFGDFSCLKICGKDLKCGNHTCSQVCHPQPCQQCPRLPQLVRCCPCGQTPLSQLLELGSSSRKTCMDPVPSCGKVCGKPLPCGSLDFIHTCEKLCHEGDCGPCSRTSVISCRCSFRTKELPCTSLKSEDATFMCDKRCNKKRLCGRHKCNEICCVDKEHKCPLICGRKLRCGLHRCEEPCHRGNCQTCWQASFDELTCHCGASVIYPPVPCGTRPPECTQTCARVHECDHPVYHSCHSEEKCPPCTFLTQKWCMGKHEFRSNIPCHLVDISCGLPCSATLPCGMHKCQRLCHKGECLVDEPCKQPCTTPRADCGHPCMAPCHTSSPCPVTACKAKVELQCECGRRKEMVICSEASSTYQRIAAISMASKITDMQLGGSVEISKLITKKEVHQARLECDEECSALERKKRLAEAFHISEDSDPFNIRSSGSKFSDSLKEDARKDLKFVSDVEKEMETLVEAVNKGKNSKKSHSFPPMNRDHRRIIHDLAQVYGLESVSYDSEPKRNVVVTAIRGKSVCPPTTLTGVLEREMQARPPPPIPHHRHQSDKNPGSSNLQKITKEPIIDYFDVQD
UniProt O60524: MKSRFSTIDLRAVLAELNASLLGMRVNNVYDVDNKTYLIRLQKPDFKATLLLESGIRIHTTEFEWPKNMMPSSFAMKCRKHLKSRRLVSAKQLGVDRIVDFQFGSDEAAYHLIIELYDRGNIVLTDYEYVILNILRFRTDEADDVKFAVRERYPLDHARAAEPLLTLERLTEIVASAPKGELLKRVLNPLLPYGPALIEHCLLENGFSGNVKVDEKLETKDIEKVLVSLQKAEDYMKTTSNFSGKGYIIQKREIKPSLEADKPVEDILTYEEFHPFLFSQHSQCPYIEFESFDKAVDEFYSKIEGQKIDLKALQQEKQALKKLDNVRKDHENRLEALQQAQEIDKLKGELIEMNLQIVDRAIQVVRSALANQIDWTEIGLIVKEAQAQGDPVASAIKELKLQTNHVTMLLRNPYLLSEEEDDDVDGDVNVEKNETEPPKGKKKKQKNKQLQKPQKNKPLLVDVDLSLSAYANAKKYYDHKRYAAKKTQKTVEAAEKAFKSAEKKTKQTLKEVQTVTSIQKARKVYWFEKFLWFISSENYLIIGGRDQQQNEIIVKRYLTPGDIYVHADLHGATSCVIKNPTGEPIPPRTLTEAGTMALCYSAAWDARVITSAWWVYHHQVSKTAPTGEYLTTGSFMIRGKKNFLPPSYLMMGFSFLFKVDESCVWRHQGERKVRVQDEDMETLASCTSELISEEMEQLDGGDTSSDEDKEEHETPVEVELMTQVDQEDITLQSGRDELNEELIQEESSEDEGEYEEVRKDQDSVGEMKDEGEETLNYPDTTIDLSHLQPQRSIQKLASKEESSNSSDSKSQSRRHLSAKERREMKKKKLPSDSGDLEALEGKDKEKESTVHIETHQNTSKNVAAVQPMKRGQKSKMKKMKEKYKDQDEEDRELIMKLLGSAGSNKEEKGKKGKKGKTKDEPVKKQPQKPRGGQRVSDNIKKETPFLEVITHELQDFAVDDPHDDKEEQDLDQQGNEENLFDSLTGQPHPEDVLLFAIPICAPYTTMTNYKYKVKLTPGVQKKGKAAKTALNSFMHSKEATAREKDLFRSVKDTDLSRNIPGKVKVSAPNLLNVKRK
UniProt P28331, whole entry, looked up: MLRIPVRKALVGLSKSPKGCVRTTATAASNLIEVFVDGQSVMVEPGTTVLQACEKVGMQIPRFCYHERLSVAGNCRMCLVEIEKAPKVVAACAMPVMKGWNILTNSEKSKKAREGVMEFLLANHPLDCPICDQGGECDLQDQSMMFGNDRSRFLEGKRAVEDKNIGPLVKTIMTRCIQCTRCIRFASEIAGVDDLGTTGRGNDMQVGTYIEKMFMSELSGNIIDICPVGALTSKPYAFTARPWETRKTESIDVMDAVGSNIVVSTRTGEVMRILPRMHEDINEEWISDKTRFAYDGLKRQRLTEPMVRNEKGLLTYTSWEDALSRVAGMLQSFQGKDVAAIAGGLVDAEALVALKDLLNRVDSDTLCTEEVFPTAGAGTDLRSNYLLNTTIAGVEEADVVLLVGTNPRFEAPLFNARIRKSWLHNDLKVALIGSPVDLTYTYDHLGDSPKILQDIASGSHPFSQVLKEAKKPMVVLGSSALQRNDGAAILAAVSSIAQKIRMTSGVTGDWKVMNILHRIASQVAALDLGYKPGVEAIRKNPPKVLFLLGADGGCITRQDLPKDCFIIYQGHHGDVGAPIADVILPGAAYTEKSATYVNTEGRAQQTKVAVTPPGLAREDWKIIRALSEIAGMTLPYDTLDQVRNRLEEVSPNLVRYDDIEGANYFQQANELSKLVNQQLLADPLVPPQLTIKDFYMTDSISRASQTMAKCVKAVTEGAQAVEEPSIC
UniProt P19404, whole entry: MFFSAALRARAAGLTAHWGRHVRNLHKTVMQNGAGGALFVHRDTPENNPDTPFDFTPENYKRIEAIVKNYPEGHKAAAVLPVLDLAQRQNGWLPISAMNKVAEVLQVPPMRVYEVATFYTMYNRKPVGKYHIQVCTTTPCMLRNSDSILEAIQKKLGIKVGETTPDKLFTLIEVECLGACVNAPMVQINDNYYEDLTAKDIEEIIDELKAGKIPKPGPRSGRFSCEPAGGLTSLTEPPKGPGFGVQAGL
UniProt Q6KC79: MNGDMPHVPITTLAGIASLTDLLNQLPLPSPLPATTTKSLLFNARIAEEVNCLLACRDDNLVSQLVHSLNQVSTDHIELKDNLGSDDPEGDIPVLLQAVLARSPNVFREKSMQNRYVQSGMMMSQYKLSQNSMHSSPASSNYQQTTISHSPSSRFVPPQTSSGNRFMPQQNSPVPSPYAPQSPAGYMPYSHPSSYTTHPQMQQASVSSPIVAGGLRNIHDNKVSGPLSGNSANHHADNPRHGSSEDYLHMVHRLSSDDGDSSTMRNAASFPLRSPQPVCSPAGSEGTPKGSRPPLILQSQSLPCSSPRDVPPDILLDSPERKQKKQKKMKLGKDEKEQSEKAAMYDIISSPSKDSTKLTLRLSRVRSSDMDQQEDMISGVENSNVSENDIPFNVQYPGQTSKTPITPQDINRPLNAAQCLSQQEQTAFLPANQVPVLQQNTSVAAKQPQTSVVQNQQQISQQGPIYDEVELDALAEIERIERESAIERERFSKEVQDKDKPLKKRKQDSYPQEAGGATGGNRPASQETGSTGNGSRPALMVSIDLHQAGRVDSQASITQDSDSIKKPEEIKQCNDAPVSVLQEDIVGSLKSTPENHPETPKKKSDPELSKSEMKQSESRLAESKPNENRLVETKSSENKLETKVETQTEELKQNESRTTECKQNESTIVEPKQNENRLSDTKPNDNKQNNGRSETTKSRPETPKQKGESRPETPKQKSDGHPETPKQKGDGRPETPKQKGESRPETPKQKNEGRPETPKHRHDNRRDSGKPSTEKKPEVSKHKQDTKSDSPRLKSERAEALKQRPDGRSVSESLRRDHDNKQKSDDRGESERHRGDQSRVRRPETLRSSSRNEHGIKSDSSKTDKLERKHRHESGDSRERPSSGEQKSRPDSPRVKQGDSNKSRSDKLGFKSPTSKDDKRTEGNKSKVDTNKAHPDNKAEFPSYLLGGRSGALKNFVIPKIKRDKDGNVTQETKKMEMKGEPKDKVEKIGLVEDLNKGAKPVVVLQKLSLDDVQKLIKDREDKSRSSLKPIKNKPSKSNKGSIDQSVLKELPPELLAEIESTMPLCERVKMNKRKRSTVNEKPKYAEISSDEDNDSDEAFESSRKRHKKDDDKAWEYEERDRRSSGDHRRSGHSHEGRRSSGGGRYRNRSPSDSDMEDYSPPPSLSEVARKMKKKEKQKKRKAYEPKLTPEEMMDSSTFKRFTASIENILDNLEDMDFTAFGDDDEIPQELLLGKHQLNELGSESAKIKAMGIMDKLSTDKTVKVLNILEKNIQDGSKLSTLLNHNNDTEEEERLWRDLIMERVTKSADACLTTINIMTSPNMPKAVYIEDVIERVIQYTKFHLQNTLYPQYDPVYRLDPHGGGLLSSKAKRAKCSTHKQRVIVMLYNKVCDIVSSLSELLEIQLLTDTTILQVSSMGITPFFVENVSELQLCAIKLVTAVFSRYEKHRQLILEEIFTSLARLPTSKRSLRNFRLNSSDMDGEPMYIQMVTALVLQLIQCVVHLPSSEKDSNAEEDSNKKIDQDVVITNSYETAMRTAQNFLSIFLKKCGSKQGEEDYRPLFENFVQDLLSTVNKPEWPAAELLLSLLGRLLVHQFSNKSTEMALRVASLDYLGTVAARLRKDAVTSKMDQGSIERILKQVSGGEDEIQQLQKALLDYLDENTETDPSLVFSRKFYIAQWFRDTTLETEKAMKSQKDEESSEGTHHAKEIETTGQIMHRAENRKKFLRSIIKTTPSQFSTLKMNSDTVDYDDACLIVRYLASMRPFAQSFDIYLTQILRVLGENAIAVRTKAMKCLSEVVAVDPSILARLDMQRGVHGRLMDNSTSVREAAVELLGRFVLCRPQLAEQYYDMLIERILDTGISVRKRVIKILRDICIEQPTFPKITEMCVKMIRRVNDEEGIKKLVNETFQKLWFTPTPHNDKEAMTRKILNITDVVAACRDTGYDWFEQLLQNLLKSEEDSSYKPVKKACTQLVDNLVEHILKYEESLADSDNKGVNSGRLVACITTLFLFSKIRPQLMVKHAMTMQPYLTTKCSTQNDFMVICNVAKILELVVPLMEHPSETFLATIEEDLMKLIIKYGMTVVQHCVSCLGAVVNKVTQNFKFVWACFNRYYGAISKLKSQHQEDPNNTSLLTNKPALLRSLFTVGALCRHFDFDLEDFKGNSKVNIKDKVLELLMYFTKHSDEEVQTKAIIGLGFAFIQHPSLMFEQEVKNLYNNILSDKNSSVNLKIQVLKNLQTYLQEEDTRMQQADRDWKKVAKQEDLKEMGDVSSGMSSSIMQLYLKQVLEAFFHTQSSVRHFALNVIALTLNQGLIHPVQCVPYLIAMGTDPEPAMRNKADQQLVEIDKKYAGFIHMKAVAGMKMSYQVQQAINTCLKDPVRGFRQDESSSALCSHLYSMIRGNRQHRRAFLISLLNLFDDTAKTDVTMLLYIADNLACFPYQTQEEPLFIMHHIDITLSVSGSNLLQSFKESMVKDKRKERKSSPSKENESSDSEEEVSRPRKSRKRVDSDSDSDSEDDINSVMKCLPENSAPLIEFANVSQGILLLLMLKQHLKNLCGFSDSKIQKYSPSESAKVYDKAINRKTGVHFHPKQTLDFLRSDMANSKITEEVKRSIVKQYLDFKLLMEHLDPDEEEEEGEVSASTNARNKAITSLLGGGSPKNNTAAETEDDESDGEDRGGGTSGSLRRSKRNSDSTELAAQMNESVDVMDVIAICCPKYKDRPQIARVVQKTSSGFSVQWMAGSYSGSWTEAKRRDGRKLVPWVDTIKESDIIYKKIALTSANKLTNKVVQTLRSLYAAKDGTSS
UniProt Q8IXH7, whole entry, looked up: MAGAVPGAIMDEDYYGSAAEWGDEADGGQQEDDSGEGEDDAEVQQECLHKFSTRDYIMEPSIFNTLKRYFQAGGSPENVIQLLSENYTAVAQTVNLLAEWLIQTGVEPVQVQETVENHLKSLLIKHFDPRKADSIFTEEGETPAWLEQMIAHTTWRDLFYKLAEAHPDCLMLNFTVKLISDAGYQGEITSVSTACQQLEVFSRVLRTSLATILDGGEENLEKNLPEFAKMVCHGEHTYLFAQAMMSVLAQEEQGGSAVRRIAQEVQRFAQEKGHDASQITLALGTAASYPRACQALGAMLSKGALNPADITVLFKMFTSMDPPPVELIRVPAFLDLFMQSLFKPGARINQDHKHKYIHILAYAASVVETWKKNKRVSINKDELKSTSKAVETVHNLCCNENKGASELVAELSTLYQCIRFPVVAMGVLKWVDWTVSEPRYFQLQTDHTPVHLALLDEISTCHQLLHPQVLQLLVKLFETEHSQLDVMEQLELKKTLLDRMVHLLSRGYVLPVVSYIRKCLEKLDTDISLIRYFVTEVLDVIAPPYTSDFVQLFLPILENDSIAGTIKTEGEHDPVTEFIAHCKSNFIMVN

Compound: Cc1cc(ccc1-c1ccccc1)C(=O)N1CCCN(CC1)C(=O)CCl [compound 10]
Assay: probe-labelled cysteine peptide fold change vs DMSO (competition) (log2 fold change); higher = less target engagement (more negative = stronger competition)
Conditions: THP-1, incubation time: 4 h
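Also: competitive profiling in live THP-1 cells: cysteine peptides tagged with an iodoacetamide desthiobiotin (IA-DTB) probe, intensity after compound treatment relative to DMSO-treated cells.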

Row | Target | probe-labelled cysteine peptide fold change (10 µM) | probe-labelled cysteine peptide fold change (50 µM)
1 | NCOR1_O75376_1274_ESPVSAPLEGLICR (UniProt O75376) | -0.229 | -0.626
2 | NCSTN_Q92542_586_EQCQDPSKVPSENK (UniProt Q92542) | -0.327 | -0.479
3 | NF1_P21359_509_LLLCNPR (UniProt P21359) | -0.0497 | -0.0523
4 | NCKIPSD_Q9NZQ3_412+429_CYLEELLHILTDADPEVCKK (UniProt Q9NZQ3) | 0.0318 | -0.0786
5 | NFX1_Q12986_947+951_LECDEECSALER (UniProt Q12986) | -0.238 | -0.409
6 | NEMF_O60524_201_VLNPLLPYGPALIEHCLLENGFSGNVK (UniProt O60524) | 0.0796 | -0.0864
7 | NDUFS1_P28331_367_VDSDTLCTEEVFPTAGAGTDLR (UniProt P28331) | -0.274 | 0.149
8 | NFAT5_O94916_347_VKPHGFYQACR (UniProt O94916) | -0.00988 | 0.00407
9 | NDUFV2_P19404_135+140_YHIQVCTTTPCMLR (UniProt P19404) | 0.0889 | -0.157
10 | NEK9_Q8TD19_506_EVYSWGCGEYGR (UniProt Q8TD19) | -0.0353 | -0.0285
11 | NIPBL_Q6KC79_1066_ELPPELLAEIESTMPLCER (UniProt Q6KC79) | 0.643 | 0.275
12 | NDRG3_Q9UGV2_30_NFQDFDCQEHDIETTHGVVHVTIR (UniProt Q9UGV2) | 0.0368 | -0.22
13 | NDUFV1_P49821_385_HESCGQCTPCR (UniProt P49821) | -0.00154 | 0.863
14 | NELFCD_Q8IXH7_293_ACQALGAMLSK (UniProt Q8IXH7) | 0.0849 | -0.0652
15 | NDUFV1_P49821_238_LKPPFPADVGVFGCPTTVANVETVAVSPTICR (UniProt P49821) | -0.133 | 0.234
16 | NFATC2_Q13469_569_IVSLQTASNPIECSQR (UniProt Q13469) | -0.0383 | -0.18
17 | NFX1_Q12986_423_CPACQNVSAHVPNTYTCFCGK (UniProt Q12986) | 0.223 | 0.12
18 | NELFCD_Q8IXH7_169_LAEAHPDCLMLNFTVK (UniProt Q8IXH7) | -0.0548 | 0.0649
19 | NFX1_Q12986_377_VTAPVWSCQSCYHVFHLNCIK (UniProt Q12986) | -0.0313 | 0.231

Complete entries from above. Values in the order: probe-labelled cysteine peptide fold change (10 µM) | probe-labelled cysteine peptide fold change (50 µM)
NDUFV2_P19404_135+140_YHIQVCTTTPCMLR (UniProt P19404) is listed with 0.0889 | -0.157
NIPBL_Q6KC79_1066_ELPPELLAEIESTMPLCER (UniProt Q6KC79) is listed with 0.643 | 0.275
